Laboratory results published in PubChem BioAssay AID624297 (National Center for Advancing Translational Sciences (NCATS), 2012).
The campaign covered roughly 340,000 compounds. About 6,200 (1.8%) were called active. These results got no clear call from the source, so the numbers are uncertain. Calls come from the whole dose curve; as a rule, active = well fitted activation curve with a large enough effect; inconclusive = small, poorly fitted or top-dose-only effect; inactive = no such curve, though single readings can be large or run the other way.

Assay: A quantitative high throughput screen for small molecules that induce DNA re-replication in SW480 colon adenocarcinoma cells. Note: nearly all actives have a fitted effect of over 55% in size.
Conditions: Hoechst DNA content imaging, 48 h
Potency is the fitted concentration of half-maximal effect.

SMILES | Potency
CCC(=O)N(c1ccccc1)C1(COC)CCN(CCc2cccs2)CC1 | inconclusive: 5.17 µM
